For at least one entry, the source does not settle the construct or the ends of the probe. A weaker result is weaker than the reference pair of the same experiment. For some of these results: Where a protein sequence is shown, tags need not be part of it.
Tests used:
Test in all cases: pull-down
hRad51 (Homo sapiens) = hRad51 (Homo sapiens) (UniProt Q06609); details: on hRPA-coated ssDNA, stimulated by RNF20N; Pull-down: 42 mM Tris-HCl pH 7.5, 15 mM KCl, 90 mM NaCl, 2 mM ATP, 1 mM EDTA, 0.5% NP-40, 1 mM DTT, 20 ug/mL BSA, 5% glycerol, 37 C; recombinant protein; protein details: 6xHis or GST-cleaved; label: 5'-biotin; single-stranded DNA
[1] = biological target: T1, Srs2 (Saccharomyces cerevisiae (yeast)) (UniProt P12954); details: Pull-down: 42 mM Tris-HCl pH 7.5, 15 mM KCl, 90 mM NaCl, 2 mM ATP, 1 mM EDTA, 0.5% NP-40, 1 mM DTT, 20 ug/mL BSA, 5% glycerol, 37 C, recombinant protein, residues 1-1174, protein details: GST (pGEX-6p-1), label: 5'-biotin, single-stranded DNA
T1 sequence (looked up): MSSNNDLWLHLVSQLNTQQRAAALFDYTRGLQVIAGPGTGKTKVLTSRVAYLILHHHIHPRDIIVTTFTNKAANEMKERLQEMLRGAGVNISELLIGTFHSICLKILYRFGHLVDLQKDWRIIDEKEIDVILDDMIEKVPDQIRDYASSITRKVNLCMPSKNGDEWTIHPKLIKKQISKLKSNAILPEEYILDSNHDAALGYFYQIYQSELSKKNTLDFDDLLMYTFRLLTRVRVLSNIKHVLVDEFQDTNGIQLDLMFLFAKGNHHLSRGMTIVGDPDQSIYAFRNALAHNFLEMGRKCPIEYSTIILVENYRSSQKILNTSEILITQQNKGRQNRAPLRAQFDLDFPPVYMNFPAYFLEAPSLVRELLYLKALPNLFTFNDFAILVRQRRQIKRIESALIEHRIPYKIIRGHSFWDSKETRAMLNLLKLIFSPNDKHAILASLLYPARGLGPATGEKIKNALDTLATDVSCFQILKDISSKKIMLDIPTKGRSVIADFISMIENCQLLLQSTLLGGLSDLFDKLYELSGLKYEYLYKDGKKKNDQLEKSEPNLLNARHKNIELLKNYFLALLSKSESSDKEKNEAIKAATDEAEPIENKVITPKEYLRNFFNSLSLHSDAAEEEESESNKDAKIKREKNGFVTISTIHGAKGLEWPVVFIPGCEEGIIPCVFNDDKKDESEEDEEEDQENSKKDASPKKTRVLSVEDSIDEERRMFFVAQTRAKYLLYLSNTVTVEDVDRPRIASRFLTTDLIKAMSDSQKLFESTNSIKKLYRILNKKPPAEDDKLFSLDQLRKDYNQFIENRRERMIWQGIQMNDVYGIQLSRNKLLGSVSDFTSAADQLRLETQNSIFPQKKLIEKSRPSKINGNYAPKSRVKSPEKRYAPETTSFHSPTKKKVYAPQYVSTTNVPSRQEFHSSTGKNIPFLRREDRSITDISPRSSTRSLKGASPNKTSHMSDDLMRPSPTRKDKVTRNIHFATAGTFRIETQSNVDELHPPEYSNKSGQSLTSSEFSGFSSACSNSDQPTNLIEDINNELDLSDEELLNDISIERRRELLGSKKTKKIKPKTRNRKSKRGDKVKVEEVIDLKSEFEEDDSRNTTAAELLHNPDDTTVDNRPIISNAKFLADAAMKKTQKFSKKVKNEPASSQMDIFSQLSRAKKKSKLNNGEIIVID

Chains of the proteins cited; added tags and fusions are not shown.
UniProt Q06609, whole entry: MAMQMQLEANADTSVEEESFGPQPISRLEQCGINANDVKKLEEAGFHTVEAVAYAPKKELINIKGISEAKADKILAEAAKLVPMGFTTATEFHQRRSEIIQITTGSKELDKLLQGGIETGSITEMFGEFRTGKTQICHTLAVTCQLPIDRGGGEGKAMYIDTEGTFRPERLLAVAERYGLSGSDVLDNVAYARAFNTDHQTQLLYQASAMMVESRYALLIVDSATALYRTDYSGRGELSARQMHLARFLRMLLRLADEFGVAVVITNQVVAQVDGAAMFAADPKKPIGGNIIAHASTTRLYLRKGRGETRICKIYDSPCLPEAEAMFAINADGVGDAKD

[2] = biological target: T2, Rad51 (Saccharomyces cerevisiae (yeast)) (UniProt P25454); details: with RPA, which markedly inhibits Rad51 binding, alleviated by Bre1; Pull-down: 42 mM Tris-HCl pH 7.5, 15 mM KCl, 90 mM NaCl, 2 mM ATP, 1 mM EDTA, 0.5% NP-40, 1 mM DTT, 20 ug/mL BSA, 5% glycerol, 37 C; recombinant protein; residues 1-400; protein details: 6xHis (pET30a) or GST-cleaved; label: 5'-biotin; single-stranded DNA
T2 sequence (looked up): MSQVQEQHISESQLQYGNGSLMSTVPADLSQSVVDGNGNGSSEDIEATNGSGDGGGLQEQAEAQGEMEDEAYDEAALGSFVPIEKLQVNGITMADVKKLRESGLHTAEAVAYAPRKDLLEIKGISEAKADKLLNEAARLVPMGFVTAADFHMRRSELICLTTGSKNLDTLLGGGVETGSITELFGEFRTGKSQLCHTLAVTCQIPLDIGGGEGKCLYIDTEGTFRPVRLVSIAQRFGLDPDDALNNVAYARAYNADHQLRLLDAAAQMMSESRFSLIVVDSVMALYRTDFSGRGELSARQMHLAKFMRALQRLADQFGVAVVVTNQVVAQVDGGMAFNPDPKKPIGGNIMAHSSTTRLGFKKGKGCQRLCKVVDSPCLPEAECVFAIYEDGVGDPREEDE

Measured: binding result

CGACAGGTCATGGCCGTACATGATATCCTCGAGCGTCCTGTTGCAACTTACACTCTGAATAGCCGAATTCTTAGGGTTAGGGTTAACA [90-nt ssDNA]
binds more weakly: hRad51 (Homo sapiens) | [1]; with Bre1, added before or after Srs2 | [1]; with Bre1-EK2A, Srs2 unloaded | [2]
